Test results as given in the supplement of paper PMC10849652.
The other results are listed elsewhere or left out.

Amino acid sequences for entries named in this document (tags omitted). A change or cut given only in a name is not applied to a line headed by its entry.
UniProt P48729: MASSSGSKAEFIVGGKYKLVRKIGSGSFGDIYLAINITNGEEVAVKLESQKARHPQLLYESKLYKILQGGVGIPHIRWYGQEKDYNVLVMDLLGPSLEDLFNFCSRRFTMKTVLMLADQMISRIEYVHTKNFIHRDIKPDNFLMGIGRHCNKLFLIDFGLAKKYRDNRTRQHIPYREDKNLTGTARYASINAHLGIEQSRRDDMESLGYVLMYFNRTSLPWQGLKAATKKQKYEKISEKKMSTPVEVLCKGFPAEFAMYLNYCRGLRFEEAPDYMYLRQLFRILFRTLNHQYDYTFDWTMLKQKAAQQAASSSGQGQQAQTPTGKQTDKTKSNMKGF
UniProt Q9GZU7: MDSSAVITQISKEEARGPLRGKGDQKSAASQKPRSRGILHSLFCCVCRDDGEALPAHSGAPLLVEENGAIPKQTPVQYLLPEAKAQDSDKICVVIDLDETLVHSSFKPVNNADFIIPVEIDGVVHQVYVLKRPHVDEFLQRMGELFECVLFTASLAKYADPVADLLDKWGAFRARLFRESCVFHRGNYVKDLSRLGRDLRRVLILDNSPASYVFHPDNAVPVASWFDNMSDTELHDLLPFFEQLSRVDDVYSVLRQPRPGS
UniProt Q6UUV9: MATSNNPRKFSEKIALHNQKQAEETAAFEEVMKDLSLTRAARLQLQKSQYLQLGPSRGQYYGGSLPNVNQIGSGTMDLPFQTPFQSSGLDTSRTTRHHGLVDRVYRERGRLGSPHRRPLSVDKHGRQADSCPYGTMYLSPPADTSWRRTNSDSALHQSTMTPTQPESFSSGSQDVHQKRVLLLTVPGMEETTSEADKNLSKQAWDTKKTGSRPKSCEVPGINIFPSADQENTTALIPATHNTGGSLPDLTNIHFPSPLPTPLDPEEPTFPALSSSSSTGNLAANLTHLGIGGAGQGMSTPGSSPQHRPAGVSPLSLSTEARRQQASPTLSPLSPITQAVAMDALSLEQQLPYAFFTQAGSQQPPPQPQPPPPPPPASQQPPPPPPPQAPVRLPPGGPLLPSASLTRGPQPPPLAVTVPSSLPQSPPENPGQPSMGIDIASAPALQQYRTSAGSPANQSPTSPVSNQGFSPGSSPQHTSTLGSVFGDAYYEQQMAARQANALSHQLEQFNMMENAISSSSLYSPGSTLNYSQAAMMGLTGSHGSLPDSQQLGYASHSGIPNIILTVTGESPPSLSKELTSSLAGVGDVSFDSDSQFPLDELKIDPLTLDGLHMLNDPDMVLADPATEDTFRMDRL
UniProt P54108: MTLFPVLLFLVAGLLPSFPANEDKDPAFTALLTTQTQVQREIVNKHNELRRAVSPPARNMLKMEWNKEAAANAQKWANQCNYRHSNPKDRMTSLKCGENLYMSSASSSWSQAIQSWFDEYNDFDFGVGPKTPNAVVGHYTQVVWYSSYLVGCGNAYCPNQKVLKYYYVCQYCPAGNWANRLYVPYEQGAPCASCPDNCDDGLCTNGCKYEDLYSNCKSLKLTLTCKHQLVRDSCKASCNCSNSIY
UniProt Q16619: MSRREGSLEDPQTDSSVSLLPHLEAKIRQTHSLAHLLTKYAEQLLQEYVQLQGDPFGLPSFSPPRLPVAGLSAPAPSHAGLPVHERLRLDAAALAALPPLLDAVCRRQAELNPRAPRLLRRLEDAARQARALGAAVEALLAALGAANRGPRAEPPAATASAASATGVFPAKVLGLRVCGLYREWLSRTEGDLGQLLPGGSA
UniProt Q9UJA2: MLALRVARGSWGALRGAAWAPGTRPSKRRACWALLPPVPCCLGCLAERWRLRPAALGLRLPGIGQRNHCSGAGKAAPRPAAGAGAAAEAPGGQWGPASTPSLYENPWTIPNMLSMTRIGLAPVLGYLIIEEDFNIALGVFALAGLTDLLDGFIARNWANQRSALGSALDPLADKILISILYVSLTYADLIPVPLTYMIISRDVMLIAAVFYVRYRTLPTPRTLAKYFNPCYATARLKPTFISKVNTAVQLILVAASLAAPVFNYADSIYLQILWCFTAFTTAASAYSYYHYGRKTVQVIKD
UniProt O60931: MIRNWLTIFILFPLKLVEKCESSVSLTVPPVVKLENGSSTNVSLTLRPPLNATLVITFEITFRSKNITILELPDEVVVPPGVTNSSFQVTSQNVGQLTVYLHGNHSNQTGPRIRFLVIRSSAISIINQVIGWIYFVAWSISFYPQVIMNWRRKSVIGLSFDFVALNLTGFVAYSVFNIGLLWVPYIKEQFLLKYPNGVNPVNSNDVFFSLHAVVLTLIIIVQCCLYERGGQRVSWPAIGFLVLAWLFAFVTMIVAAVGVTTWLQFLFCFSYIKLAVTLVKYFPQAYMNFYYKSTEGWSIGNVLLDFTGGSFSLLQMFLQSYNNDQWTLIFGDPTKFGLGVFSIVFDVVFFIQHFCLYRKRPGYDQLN
UniProt Q13948: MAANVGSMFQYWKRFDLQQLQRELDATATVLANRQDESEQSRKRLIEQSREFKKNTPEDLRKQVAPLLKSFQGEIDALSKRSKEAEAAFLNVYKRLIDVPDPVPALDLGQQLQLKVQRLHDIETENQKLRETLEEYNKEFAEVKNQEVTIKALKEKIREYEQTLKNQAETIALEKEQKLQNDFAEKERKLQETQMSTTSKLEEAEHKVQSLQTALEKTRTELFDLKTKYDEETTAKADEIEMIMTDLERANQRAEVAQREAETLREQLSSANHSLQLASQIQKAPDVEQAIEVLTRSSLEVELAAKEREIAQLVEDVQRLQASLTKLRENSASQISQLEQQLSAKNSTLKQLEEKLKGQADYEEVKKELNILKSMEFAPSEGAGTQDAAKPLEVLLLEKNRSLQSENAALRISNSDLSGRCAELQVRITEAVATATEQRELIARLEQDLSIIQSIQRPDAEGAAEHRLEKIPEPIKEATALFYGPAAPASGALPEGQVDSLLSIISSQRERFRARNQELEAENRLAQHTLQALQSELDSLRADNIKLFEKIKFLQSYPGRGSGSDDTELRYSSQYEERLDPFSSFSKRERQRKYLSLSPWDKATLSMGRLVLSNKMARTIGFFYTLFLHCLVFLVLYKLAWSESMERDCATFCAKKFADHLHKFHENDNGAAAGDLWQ
UniProt Q9UBT7: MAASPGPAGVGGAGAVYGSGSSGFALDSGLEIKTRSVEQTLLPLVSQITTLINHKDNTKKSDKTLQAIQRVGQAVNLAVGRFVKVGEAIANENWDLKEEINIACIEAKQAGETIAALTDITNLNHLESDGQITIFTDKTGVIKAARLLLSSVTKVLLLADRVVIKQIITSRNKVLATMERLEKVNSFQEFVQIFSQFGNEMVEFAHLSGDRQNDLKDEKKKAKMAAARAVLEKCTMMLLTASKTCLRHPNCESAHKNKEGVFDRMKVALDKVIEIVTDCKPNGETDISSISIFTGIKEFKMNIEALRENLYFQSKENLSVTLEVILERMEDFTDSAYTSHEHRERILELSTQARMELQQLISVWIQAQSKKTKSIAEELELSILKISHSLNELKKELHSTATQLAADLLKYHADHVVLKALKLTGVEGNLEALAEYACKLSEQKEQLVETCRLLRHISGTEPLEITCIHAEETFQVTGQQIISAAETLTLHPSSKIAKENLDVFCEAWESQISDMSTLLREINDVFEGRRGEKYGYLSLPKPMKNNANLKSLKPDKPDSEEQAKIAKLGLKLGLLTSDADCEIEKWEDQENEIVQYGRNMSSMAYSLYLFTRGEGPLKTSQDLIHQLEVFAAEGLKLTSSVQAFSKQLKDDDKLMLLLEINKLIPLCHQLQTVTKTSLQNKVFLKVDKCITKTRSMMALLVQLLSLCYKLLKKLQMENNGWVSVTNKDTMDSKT
UniProt O75575: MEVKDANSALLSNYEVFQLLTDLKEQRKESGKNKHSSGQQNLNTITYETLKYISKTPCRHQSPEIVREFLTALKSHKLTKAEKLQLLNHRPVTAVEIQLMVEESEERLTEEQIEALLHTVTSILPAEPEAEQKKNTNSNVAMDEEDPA
UniProt P01037: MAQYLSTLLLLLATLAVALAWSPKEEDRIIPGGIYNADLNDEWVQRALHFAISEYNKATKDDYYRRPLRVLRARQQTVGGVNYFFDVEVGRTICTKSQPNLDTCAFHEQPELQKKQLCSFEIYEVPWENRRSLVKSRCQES
UniProt P00167, whole entry, looked up: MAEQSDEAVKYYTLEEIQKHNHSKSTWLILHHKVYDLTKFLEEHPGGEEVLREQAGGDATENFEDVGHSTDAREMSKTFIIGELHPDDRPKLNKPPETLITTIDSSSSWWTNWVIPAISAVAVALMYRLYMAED
UniProt Q14894: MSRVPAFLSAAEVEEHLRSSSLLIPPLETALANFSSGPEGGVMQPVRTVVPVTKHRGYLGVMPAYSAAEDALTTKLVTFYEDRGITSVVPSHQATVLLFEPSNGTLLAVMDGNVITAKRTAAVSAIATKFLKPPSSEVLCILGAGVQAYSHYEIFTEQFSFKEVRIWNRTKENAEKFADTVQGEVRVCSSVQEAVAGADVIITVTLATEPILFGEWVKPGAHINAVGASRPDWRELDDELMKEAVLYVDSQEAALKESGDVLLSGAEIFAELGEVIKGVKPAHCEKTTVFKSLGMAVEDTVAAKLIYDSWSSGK
UniProt Q9P2B4: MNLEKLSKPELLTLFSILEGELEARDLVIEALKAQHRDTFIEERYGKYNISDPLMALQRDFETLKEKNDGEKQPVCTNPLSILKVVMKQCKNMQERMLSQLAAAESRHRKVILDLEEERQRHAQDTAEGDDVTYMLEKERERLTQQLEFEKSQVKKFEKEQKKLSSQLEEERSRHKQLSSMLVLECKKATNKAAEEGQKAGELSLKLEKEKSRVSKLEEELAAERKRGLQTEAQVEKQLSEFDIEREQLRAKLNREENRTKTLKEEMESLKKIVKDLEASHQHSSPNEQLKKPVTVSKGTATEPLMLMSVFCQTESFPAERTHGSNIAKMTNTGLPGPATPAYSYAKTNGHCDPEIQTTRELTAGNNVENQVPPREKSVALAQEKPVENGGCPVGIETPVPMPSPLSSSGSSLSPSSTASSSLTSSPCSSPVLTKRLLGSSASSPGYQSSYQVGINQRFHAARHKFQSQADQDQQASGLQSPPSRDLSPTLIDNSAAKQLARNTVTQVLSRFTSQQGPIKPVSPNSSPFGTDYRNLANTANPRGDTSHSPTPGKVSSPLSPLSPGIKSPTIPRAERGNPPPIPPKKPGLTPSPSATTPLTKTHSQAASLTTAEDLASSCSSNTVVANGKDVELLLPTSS
UniProt P25774, whole entry, looked up: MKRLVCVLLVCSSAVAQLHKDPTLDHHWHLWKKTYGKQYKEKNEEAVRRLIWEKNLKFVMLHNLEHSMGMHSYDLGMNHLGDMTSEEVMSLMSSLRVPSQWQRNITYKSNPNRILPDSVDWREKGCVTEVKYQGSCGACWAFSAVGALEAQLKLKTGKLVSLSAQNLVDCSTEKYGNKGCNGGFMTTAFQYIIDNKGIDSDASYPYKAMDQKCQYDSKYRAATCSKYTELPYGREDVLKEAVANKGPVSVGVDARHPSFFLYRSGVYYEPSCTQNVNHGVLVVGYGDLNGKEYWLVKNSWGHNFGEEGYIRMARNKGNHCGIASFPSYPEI
UniProt Q9UKG9: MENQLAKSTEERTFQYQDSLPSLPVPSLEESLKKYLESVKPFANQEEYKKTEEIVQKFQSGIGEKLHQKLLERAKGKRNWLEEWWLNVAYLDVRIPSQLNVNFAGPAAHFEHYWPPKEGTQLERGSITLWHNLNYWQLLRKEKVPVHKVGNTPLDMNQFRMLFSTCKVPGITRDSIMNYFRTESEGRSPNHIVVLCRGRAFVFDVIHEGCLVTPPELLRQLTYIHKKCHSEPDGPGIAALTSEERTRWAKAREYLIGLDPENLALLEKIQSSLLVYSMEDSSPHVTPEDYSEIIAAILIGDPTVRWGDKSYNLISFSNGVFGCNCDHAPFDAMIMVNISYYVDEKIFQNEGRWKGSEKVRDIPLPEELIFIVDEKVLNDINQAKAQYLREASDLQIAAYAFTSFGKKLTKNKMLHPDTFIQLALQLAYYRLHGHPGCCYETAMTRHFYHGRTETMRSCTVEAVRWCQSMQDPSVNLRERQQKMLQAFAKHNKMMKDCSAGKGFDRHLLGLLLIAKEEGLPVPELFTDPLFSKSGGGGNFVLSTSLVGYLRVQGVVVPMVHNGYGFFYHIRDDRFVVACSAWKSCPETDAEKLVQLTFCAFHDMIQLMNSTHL
UniProt P49447: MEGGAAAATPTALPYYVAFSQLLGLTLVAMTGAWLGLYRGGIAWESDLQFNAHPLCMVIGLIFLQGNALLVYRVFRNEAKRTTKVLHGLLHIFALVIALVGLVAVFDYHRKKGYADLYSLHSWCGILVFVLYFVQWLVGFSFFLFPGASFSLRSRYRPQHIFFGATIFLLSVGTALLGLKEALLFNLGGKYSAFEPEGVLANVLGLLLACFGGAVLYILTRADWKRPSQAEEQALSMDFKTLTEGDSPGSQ

How the values were obtained:
Test in all cases: log2 fold change, soluble protein after heating vs DMSO (PISA); higher = thermal stabilisation; K562 lysate, 10 uM; active = over 0.2 and 3.5 SD of the protein, either way, in both replicates (recomputed)
[1] = compound: CN1CC[C@H](c2c(O)cc(O)c3c(=O)cc(-c4ccccc4Cl)oc23)[C@H](O)C1 [alvocidib]
Summary of the method: (§1)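 Pellets of K562 cells were dounce-homogenised in PBS pH 7.4 with 1 mM MgCl2, and the crude extract was held at 1 mg/mL protein for a 30 min treatment with 10 μM compound. Aliquots were heated for 3 min over 48°C-58°C and pooled before NP-40 was added to 0.5% at 4°C. The supernatant from 21,000xg for 90 min was quantified by TMTpro 16plex LC-MS/MS with channel sums equalised. Values are reported from duplicates as log-two fold change in thermal stability relative to solvent controls.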

[2] = compound: CN1CCc2c(c3ccccc3n2Cc2ccc(C(=O)NO)cc2)C1 [Tubastatin A]
Summary of the method: as §1

[3] = compound: CNC(=O)c1ccc(Nc2ncc(C(F)(F)F)c(NCc3nccnc3N(C)S(C)(=O)=O)n2)cc1 [defactinib]
Summary of the method: as §1

[4] = compound: CNc1nc(-c2ccc3c(N)n[nH]c3c2)cc(N2C[C@@H](C(=O)NC3CCCCC3)CC[C@H]2C)n1
Summary of the method: as §1

[5] = compound: COC(=O)N[C@@H](C)CNc1nccc(-c2cn(C(C)C)nc2-c2cc(Cl)cc(NS(C)(=O)=O)c2F)n1 [encorafenib]
Summary of the method: as §1

[6] = compound: COC(=O)[C@H](CCSC)NC(=O)C1=C(C=C(C=C1)NC[C@H](CS)N)C2=CC=CC=C2
Summary of the method: as §1

[7] = compound: COc1cc2nc(-c3cc(F)ccc3O)nc(N[C@@H]3CNC[C@H]3C(C)(C)O)c2cc1OC
Summary of the method: as §1

[8] = compound: COc1cc2ncnc(Nc3ccc(F)c(Cl)c3)c2cc1OCCCN1CCOCC1 [gefitinib]
Summary of the method: as §1

[9] = compound: CNC(=O)C1=CC=CC=C1NC2=NC(=NC=C2Cl)NC3=C(C=C(C=C3)N4CCOCC4)OC
Summary of the method: as §1

[10] = compound: COc1cc(Nc2ncc3c(n2)-c2ccc(Cl)cc2C(c2c(F)cccc2OC)=NC3)ccc1C(=O)O [alisertib]
Summary of the method: as §1

Measured: log2 fold change

CSNK1A1 (UniProt P48729)
inactive: [1] 0.007 | [2] -0.105 | [3] 0.077 | [4] 0.019 | [5] 0.081 | [6] -0.005 | [7] 0.049 | [8] -0.005

CTDSP1 (UniProt Q9GZU7)
inactive: [1] -0.018 | [2] 0.027 | [4] -0.051

CRTC1 (UniProt Q6UUV9)
inactive: [1] 0.004 | [2] 0.011 | [9] -0.005 | [3] 0.077 | [4] 0.088 | [5] -0.025 | [6] -0.075 | [7] 0.012

CRISP3 isoform 3 (UniProt P54108)
inactive: [1] 0.093 | [2] 1.06 | [9] -0.247 | [4] 0.21 | [10] -0.082 | [8] 0.087

CTF1 (UniProt Q16619)
inactive: [1] 0.064 | [2] 0.1 | [9] -0.101 | [3] 0.133 | [4] 0.06 | [5] 0.05 | [6] -0.109 | [7] -0.087

CTC1 (UniProt Q2NKJ3)
inactive: [1] -0.032 | [2] -0.126 | [9] 0.034 | [3] -0.014 | [4] -0.035 | [5] 0.028 | [6] 0.041 | [10] 0.291 | [8] 0.294

CRLS1 (UniProt Q9UJA2)
inactive: [1] 0.056 | [2] 0.007 | [9] 0.068 | [10] 0.076 | [7] -0.017 | [8] 0.079

CTNS isoform 2 (UniProt O60931)
inactive: [1] -0.322 | [2] -0.135 | [3] 0.084 | [4] 0.358 | [5] -0.02 | [6] -0.157

CUX1 isoform 2 (UniProt Q13948)
inactive: [1] -0.035 | [2] 0.016 | [9] 0.033 | [3] 0.085 | [4] -0.028 | [5] 0.067 | [6] -0.022 | [7] 0.071

CTNNAL1 (UniProt Q9UBT7)
inactive: [1] -0.041 | [9] -0.117 | [3] 0.017 | [4] -0.165 | [5] 0.002 | [6] -0.011 | [10] 0.077 | [7] -0.036 | [8] -0.041

CRCP (UniProt O75575)
inactive: [1] 0.013 | [2] 0.046 | [9] 0.106 | [3] -0.033 | [5] 0.009 | [6] -0.138 | [10] -0.066 | [7] 0.008 | [8] 0.031

CST1 (UniProt P01037)
inactive: [1] 0.026 | [2] 1.37 | [9] -0.245 | [5] -0.02 | [6] 0.027 | [10] -0.036 | [8] 0.031

CYB5A (UniProt P00167)
inactive: [1] -0.021 | [2] 0.059 | [9] 0.133 | [4] 0.14 | [5] 0.009 | [6] -0.029 | [10] 0.048 | [8] -0.027

CRYM (UniProt Q14894)
inactive: [1] -0.061 | [2] 0.252 | [3] 0.13 | [5] -0.054 | [6] 0.057 | [7] -0.058

CTTNBP2NL (UniProt Q9P2B4)
inactive: [1] 0.044 | [2] -0.059 | [3] 0.064 | [5] 0.012 | [6] 0.096 | [10] -0.095 | [7] 0.028 | [8] 0.067

2 successive entries already listed:
CTC1 (UniProt Q2NKJ3)
inactive: [1] -0.032 | [2] -0.126 | [9] 0.034 | [3] -0.014 | [4] -0.035 | [5] 0.028 | [6] 0.041 | [10] 0.291 | [8] 0.294

CRLS1 (UniProt Q9UJA2)
inactive: [1] 0.056 | [2] 0.007 | [9] 0.068 | [10] 0.076 | [7] -0.017 | [8] 0.079

Carrying on:

CTSS (UniProt P25774)
inactive: [1] -0.052 | [9] -0.091 | [4] 0.083 | [5] -0.134 | [6] -0.04

CROT isoform 3 (UniProt Q9UKG9)
inactive: [1] -0.055 | [9] -0.114 | [5] 0.027 | [6] -0.053 | [10] -0.154 | [8] -0.049

CYB561 (UniProt P49447)
inactive: [1] -0.123 | [2] 0.007 | [9] -0.034 | [3] -0.03 | [4] 0.081 | [5] 0.039 | [6] -0.045 | [7] 0.052
